Experimental data: EP0311051A2, “Pyridylacetonitrile derivatives” (priority 1987, dated 1989)
At least one structure is not confirmed: it was looked up by name or label, or the drawing left a doubt.

System: rice seedlings (variety: Jyukkoku)
Settings: 500 ppm a.i.

For `CC(C)OC(=O)C(C(=O)OC(C)C)=C1SCCS1` [F, diisopropyl-1,3,-dithiolan-2-ylidene malonate], the Chemical injury was “-”.
